# PMC11389393
# Sequences of proteins named here, by UniProt entry; tags and fusion partners are left off. A change or cut given only in a name is not applied to a line headed by its entry.
# UniProt Q86G50: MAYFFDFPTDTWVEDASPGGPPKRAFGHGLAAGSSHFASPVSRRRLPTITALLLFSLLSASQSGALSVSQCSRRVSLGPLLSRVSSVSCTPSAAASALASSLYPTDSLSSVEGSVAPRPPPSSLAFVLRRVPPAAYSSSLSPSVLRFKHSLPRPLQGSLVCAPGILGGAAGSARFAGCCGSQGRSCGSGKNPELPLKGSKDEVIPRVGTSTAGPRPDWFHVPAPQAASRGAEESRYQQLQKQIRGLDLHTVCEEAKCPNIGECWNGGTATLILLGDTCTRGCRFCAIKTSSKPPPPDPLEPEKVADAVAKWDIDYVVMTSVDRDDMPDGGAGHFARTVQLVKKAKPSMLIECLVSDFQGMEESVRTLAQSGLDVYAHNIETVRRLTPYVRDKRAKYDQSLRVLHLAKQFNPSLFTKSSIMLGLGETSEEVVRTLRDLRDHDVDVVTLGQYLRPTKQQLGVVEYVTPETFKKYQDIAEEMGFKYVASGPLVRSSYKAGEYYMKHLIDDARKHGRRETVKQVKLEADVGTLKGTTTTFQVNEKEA
# UniProt S8GG49: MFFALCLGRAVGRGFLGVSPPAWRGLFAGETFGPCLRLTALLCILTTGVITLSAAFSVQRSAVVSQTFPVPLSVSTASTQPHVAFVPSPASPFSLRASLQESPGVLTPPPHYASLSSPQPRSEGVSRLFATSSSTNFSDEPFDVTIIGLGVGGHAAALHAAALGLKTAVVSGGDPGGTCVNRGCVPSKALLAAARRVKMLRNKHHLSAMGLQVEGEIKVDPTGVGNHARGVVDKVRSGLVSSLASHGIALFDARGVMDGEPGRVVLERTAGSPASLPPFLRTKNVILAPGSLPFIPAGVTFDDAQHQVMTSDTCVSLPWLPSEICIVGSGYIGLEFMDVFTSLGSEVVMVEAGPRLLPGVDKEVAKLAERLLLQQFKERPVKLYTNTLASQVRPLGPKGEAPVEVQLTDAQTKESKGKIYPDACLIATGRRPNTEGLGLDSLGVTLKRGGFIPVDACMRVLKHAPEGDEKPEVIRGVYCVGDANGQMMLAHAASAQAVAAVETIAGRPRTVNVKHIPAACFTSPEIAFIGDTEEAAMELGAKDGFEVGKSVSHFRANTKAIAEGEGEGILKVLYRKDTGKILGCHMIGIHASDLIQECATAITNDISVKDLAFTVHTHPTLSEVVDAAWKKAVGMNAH
# UniProt A0A125YZK4: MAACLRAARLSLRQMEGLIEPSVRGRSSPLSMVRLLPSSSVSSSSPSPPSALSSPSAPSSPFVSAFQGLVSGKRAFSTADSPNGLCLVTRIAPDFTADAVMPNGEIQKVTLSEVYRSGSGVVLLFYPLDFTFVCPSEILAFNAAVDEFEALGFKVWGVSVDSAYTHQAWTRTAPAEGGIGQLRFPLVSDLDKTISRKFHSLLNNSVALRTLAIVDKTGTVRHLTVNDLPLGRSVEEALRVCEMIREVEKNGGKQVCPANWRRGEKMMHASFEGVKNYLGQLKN
# UniProt A0A125YVC1: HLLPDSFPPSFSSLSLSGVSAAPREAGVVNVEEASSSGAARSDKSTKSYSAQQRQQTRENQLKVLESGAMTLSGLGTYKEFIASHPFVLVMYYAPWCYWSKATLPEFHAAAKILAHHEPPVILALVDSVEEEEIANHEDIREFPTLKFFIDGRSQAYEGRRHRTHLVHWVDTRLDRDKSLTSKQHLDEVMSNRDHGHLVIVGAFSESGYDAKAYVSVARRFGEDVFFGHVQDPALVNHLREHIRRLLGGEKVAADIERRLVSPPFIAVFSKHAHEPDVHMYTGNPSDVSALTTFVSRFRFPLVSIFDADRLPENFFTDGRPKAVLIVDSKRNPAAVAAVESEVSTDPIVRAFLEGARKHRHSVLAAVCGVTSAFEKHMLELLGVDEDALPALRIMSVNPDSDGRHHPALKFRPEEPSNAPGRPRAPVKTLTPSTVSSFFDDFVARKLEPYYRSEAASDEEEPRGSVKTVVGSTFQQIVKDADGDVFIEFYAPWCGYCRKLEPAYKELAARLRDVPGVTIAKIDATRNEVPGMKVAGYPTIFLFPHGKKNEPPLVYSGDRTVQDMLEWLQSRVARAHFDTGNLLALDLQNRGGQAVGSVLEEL
# No constants are given. Whether binding was seen depends on the method and setting. In cells and extracts the contact can be indirect. These calls come from enrichment with a bait or labelling near it, and not all partners need be listed.
# B1: TgPOFUT2 (protein, UniProt S7WCF5 1-858)
# chain: MHCQLGGQARALIFLMFESCRNSWHVSPWSSVPFLPSPCLFFSFSALPFLHPLSQLIACRGSSATWLFPVSSGTLVLRYALAASPPRGTMRPSTNPRTAEEGRPWLIHATQTGPQTASVLSLFPAVNAGFFSACRQHRGGRPPCLLNHRRLLLGLVSVLTVFLSCLPFTNATVSPAALQDVCYAFGNISRKLSSFLVPSRVTCPRGATPLSGVEAQDSLEHPEIPDFRFLVYDVKNGEGFHLQKEVIYRVALVISLLNARSAQQGRMTDVHTAEKAREDRGHPQASHMLCASSSFSHACSARSTFPFFPMWVLVLPPWCRLAHWHFSEETITAMAENSWLKHVRWGTFFDFQDLGERLPVMEYEDFLTYQLMRPDPWGERRQRKEKQTTPVELDVVLSVRFSSTPSSRSLPFCACLSSRASEIADEQAQRDDVCCNVNDLPGCPQIHAALTPQERQRAPAQRGGDPREEIDEQTGEFNEGHNPSGDGEREKRKPGRRSDTSRSRKEIQEEAKVSDTWSGVSLWLAGFCETVRALEMWCASLYIADAPRIADLLWRSVAERPPGAIQTVWLKFGENLLVPWPDVLLDAHLLDMLHVHPKLRQIGDLFINKFLSNRDKTETGKGERASTEGGTEGDENLAKHGYIAAHLRRTDFLYLKRSVPLQRAAAYLVSRMKEHGVFKAFICTDGSEDEKRELRDAVRRVGDAASSSPYTVVFFDLPTVRRLMIKTLEASSHVSDDGSFHDLKAVETPGYSGPNHISLLLHPGITALIEVWIAARAAYFIGTKDSRFSQAIRWERHLMGHPLDSSLEVFCVDSSPDQTGGQAQGKCFATKSHDPPEGRSRSELRRKYWPSLDPSSTL
# Biological target: PDI8-3FLAG (TgPDI8 with a 3xFLAG tag followed by the GEEL sequence) (Toxoplasma gondii)
# Experiment: affinity purification with mass spectrometry; PDI8-3FLAG parasite lysate (50 mM Tris pH 7.4, 150 mM NaCl, 1% NP-40), mouse anti-FLAG antibodies overnight at 4°C, protein A/G magnetic beads, LC-MS/MS
row,Molecule,binding
1,LiPA (from UniProt Q86G50),binds
2,PDH-E3I (from UniProt S8GG49),binds
3,Prx3 (from UniProt A0A125YZK4 1-283),binds
4,Trx (from UniProt A0A125YVC1),binds
5,B1,binds
